Test results taken from article PMC12524297 (International Journal of Molecular Sciences, 2025).

System: Caenorhabditis elegans (C. elegans, N2 strain)
Conditions: L4-stage worms, 24 h at 20 °C, K-M buffer, Probit analysis

Q: `CN1[C@@H]2CC[C@H]1C[C@@H](OC(=O)C(CO)c1ccccc1)C2` (stereo partly shown) [Atropine] was tested. Which LD50 did it give?
A: The LD50 was 21.5 to 46.4 mg/mL.
